37 targets from the supplement of paper PMC12819154, “High-throughput peptide-centric local stability assay extends protein–ligand identification to membrane proteins, tissues and bacteria” (Nature Structural & Molecular Biology, 2025) can be followed below.

The other results are listed elsewhere or left out. Most values lie at the level of the controls, where differences are scatter.

Compound in the experiment: CN[C@@H]1C[C@H]2O[C@@](C)([C@@H]1OC)n1c3ccccc3c3c4c(c5c6ccccc6n2c5c31)C(=O)NC4 [staurosporine]
As to the kind of experiment: log2 fold change of pooled soluble protein (PISA), ligand vs vehicle (log2 ratio); higher = more thermally stabilized. Conditions: ligand concentration: 20 uM; assay format: PISA pool 52.9/55.5/58.6 C.
Consider UniProt Q9D8Y1, for which the “log2 fold change of pooled soluble protein” value (shortened to “log2 fold change”) was -0.0165.

For UniProt Q9DBG1, the “log2 fold change” value was found to be 0.13.

As to UniProt Q9D394, the “log2 fold change” value worked out at 0.0119.

On to UniProt Q9D172, for which the “log2 fold change” value was 0.0677.

In the case of UniProt Q9DB98, the “log2 fold change” value amounted to 0.0216.

With UniProt Q9D0K1, the “log2 fold change” value was -0.101.

As for UniProt Q9D061, the “log2 fold change” value was -0.171.

For UniProt Q9D826, the “log2 fold change” value is -0.0527.

As to UniProt Q9D1L0, the “log2 fold change” value came to 0.0245.

Take UniProt Q9D4H8: the “log2 fold change” value is -0.376.

For UniProt Q9D8S4, the “log2 fold change” value was -0.0654.

For the target UniProt Q9D7J9, the “log2 fold change” value is -0.037.

As to UniProt Q9CZX7, the “log2 fold change” value is -0.0351.

As for UniProt Q9DB34, the “log2 fold change” value was 0.06.

Consider UniProt Q9DA03, for which the “log2 fold change” value was -0.29.

UniProt Q9CY66: the “log2 fold change” value was 0.0849.

Turning to UniProt Q9D5J6, the “log2 fold change” value is 0.109.

In the case of UniProt Q9DAZ9, the “log2 fold change” value is -0.071.

UniProt Q9D8V0: the “log2 fold change” value was found to be 0.147.

For the target UniProt Q9D9H8, the “log2 fold change” value was -0.0188.

Take UniProt Q9DBA6: the “log2 fold change” value was -0.129.

Turning to UniProt Q9D8L5, the “log2 fold change” value was -0.201.

UniProt Q9D8T2: the “log2 fold change” value is -0.0424.

Take UniProt Q9DBT5: the “log2 fold change” value was -0.0199.

For the target UniProt Q9D880, the “log2 fold change” value is -0.0493.

Regarding UniProt Q9D0J8, the “log2 fold change” value is -0.0795.

On to UniProt Q9D8S9, for which the “log2 fold change” value is -0.0992.

Regarding UniProt Q9D8W5, the “log2 fold change” value is -0.342.

As to UniProt Q9D3P8, the “log2 fold change” value stood at 0.0862.

For UniProt Q9D967, the “log2 fold change” value was -0.124.

On to UniProt Q9CY58, for which the “log2 fold change” value came out at 0.0723.

Regarding UniProt Q9DAW9, the “log2 fold change” value was -0.0347.

In the case of UniProt Q9D6Y9, the “log2 fold change” value is -0.188.

On to UniProt Q9D958, for which the “log2 fold change” value worked out at 0.0113.

Take UniProt Q9D8H7: the “log2 fold change” value came to 0.0365.

For UniProt Q9D5V6, the “log2 fold change” value is -0.195.

On to UniProt Q9D404, for which the “log2 fold change” value was -0.0813.
